Experimental data from the supplement of paper PMC12819154, “High-throughput peptide-centric local stability assay extends protein–ligand identification to membrane proteins, tissues and bacteria” (Nature Structural & Molecular Biology, 2025).
The list shows a part of the results. Small differences around the control level are noise.

Chains of the proteins cited; added tags and fusions are not shown. Lines headed by an entry give the natural chain unless they say otherwise; changes in a name come on top.
UniProt Q13064: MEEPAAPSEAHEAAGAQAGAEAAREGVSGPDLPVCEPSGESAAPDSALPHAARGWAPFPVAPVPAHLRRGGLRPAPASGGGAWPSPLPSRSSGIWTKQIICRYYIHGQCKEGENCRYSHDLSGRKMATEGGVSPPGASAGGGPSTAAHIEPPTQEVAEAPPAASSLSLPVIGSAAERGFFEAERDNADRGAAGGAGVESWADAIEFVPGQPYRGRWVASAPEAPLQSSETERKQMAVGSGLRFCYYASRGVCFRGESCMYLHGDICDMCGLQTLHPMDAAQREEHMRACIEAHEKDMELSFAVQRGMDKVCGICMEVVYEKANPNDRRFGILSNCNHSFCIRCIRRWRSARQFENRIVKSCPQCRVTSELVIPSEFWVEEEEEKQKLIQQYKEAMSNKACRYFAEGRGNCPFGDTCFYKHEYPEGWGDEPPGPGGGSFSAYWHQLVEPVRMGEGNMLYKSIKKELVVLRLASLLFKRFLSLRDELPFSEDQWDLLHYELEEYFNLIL
UniProt Q01804: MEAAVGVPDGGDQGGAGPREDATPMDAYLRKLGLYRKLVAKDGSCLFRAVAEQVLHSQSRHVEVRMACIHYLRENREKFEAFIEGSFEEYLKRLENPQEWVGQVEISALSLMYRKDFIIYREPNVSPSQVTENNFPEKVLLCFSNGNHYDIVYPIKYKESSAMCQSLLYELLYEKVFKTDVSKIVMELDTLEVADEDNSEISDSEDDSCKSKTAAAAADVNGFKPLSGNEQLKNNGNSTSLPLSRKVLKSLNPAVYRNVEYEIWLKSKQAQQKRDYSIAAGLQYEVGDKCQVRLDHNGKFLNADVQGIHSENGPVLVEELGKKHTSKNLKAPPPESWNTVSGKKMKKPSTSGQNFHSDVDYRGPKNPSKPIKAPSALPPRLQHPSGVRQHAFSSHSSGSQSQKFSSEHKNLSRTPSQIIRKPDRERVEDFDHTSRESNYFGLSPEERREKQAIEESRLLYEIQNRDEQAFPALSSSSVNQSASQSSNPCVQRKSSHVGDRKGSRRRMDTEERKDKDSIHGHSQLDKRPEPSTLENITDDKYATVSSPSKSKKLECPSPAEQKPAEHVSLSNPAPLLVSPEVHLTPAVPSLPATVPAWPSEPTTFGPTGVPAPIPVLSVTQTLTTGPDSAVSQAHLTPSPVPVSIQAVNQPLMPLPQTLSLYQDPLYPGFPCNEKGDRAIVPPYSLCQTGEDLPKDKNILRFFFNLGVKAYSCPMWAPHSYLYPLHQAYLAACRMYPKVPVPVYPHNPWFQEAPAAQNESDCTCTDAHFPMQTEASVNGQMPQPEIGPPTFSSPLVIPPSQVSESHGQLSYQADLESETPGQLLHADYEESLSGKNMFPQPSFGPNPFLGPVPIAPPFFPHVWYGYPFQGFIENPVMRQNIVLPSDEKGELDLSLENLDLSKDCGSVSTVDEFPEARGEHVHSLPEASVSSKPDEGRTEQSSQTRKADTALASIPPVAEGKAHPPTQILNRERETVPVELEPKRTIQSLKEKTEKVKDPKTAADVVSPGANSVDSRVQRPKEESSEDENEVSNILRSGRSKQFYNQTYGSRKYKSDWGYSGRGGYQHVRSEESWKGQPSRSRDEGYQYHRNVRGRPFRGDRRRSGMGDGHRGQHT
UniProt Q00577: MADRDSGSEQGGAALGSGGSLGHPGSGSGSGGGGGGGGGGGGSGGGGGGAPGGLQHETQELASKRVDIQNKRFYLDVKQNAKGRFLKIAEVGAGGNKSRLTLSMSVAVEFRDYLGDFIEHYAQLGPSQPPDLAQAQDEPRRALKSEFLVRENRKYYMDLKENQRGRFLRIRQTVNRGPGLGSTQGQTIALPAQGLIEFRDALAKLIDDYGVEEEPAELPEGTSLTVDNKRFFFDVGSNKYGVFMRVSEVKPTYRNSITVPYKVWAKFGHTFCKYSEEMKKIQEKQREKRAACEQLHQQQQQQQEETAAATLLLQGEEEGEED
UniProt Q12797: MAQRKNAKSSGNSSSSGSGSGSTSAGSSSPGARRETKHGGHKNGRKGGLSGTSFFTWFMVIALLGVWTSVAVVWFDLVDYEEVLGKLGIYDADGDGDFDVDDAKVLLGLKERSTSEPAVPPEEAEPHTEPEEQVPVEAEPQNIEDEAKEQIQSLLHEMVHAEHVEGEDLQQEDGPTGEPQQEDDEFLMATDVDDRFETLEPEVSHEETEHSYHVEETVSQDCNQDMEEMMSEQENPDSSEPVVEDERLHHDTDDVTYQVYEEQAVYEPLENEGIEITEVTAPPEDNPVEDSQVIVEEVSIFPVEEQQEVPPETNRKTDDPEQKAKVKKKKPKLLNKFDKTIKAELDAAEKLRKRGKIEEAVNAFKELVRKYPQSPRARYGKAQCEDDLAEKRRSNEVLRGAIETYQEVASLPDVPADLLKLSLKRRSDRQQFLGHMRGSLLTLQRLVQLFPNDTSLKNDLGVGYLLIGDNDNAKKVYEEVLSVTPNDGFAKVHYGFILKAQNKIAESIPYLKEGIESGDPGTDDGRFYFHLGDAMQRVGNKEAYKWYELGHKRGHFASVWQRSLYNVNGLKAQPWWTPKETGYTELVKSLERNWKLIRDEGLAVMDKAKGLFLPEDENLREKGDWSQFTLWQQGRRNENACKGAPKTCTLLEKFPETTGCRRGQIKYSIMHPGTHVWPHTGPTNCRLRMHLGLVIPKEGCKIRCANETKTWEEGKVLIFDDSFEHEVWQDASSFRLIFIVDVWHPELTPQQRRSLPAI
UniProt Q12815: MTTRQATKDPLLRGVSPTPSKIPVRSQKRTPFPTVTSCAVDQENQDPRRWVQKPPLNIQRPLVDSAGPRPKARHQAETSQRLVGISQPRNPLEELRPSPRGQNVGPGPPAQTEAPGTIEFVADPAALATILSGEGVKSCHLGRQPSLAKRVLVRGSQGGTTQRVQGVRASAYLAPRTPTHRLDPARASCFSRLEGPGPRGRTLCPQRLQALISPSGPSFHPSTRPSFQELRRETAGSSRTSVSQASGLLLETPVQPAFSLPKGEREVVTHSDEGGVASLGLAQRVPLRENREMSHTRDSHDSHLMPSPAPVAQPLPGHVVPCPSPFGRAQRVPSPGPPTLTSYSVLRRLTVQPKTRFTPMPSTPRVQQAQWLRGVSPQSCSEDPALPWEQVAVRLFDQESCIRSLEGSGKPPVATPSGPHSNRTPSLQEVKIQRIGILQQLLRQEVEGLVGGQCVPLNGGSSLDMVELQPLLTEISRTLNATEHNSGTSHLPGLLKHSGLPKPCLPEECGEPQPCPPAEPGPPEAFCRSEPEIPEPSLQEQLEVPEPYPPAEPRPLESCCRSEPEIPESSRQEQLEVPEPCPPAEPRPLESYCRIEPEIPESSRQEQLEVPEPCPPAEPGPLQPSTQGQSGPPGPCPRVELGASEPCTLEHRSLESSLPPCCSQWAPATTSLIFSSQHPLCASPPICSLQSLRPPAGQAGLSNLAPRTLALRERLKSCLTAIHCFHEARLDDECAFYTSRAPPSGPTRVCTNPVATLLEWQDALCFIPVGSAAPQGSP
UniProt Q06587: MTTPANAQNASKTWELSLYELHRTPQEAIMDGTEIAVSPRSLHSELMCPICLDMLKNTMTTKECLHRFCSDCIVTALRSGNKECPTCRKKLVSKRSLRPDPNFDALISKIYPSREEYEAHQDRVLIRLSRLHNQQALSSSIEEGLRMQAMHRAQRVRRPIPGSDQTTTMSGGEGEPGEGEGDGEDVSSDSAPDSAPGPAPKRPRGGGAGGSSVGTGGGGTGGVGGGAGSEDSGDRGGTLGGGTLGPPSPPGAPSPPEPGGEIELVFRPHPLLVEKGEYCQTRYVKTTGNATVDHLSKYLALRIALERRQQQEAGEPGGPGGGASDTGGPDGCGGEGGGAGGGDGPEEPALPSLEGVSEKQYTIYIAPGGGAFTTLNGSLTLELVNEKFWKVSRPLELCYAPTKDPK
UniProt Q12906, whole entry: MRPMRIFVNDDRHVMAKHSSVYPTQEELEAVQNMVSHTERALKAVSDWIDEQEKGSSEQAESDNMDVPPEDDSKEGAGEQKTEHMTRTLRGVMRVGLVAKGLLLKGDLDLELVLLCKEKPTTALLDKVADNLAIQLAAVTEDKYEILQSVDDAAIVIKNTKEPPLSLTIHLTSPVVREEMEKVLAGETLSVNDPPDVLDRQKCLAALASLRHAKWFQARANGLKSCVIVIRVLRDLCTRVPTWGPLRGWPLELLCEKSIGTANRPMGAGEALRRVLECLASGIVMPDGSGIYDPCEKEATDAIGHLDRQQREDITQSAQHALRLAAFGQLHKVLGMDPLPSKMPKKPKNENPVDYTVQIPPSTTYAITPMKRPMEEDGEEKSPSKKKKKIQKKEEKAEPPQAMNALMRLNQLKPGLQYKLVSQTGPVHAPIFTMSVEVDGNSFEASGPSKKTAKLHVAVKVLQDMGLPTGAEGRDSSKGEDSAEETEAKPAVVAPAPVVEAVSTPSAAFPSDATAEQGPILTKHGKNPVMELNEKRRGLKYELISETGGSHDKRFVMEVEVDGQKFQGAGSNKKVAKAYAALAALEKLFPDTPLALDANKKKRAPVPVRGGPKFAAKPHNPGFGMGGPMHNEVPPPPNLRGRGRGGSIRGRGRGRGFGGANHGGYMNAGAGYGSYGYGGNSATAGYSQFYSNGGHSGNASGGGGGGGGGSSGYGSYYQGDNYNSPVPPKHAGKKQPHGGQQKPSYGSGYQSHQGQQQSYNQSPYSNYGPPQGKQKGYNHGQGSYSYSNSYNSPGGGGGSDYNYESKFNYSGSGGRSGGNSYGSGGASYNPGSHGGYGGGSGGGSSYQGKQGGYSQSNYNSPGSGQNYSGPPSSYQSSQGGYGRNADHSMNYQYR
UniProt Q13094: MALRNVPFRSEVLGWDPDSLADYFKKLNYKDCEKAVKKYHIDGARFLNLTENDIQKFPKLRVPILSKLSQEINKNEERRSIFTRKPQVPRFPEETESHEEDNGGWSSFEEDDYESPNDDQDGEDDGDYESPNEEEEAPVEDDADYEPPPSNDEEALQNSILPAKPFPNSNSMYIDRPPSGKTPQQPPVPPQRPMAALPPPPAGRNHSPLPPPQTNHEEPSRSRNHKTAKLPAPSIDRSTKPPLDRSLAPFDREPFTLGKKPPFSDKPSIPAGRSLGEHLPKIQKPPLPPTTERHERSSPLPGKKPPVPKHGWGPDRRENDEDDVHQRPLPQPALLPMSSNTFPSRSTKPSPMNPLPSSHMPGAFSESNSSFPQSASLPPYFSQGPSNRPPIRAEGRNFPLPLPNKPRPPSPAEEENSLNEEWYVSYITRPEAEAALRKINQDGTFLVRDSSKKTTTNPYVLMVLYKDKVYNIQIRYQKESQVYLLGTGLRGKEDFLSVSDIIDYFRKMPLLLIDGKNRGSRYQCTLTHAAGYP
UniProt Q00653: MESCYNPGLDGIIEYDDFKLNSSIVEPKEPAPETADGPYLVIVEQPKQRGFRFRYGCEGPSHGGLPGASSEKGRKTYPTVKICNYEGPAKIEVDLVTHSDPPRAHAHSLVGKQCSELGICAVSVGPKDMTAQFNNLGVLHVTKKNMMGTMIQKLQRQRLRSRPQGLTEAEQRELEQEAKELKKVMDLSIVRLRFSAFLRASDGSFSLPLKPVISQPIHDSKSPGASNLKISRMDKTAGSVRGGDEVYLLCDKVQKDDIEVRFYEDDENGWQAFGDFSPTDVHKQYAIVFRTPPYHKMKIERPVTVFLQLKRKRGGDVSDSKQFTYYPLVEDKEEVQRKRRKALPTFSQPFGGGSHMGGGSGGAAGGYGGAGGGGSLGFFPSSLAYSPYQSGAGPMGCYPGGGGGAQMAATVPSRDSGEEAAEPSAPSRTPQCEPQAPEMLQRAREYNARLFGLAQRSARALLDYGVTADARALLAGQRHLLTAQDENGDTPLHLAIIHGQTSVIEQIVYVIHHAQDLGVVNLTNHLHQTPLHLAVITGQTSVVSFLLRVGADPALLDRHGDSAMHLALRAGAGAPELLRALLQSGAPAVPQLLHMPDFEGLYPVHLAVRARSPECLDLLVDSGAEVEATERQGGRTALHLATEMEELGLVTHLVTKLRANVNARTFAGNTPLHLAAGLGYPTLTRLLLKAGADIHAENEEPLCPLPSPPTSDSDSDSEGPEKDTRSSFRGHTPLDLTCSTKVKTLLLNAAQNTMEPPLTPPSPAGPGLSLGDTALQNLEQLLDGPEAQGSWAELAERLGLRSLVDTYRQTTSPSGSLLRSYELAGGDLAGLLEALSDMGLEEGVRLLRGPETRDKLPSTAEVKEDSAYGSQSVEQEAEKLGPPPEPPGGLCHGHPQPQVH
UniProt Q01081: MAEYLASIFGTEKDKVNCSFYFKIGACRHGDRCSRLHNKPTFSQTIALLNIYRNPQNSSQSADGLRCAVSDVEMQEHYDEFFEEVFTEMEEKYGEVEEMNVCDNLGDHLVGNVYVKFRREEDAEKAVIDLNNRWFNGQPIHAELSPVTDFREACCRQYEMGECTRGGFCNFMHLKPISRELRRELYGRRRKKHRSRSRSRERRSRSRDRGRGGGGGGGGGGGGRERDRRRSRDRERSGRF

These targets were tested with Cc1nc(Nc2ncc(C(=O)Nc3c(C)cccc3Cl)s2)cc(N2CCN(CCO)CC2)n1 [dasatinib] (assay: log2 fold change of tryptic peptide abundance, ligand vs vehicle (limited proteolysis) (log2 ratio); higher = more trypsin-susceptible (destabilized)). Conditions: ligand concentration: 5 uM; sample: K562 cleared lysate.
With “SARNP (peptide sequence: KSEDDEKLK, peptide start residue: 167) (UniProt P82979)” the log2 fold change was -0.251. In the case of “MKRN3 (peptide sequence: GWAPFPVAPVPAHLRR, peptide start residue: 54) (UniProt Q13064)”, the log2 fold change is reported as -0.305. In the case of “TAF10 (peptide sequence: ASPAGTAGGPGAGAAAGGTGPLAAR, peptide start residue: 43) (UniProt Q12962)”, the log2 fold change is reported as 0.193. With “OTUD4 (peptide sequence: APPPESWNTVSGKK, peptide start residue: 331) (UniProt Q01804)” the log2 fold change was -0.307. Target “CENPE (peptide sequence: SLFILGQVIK, peptide start residue: 261) (UniProt Q02224)” has a log2 fold change of 0.555. With “PURA (peptide sequence: ALKSEFLVR, peptide start residue: 118) (UniProt Q00577)” the log2 fold change was 0.231. In the case of “DLG1 (peptide sequence: DKGEIPDDMGSK, peptide start residue: 666) (UniProt Q12959)”, the log2 fold change is reported as -0.36. “ASPH (peptide sequence: GKIEEAVNAFK, peptide start residue: 355) (UniProt Q12797)” was tested, and the log2 fold change was 0.268. “ZBED6 (peptide sequence: GRPGSHLGTSTLQR, peptide start residue: 295) (UniProt P86452)” showed a log2 fold change of -0.205. “AHNAK (peptide sequence: VKGGVDVTLPR, peptide start residue: 583) (UniProt Q09666)” showed a log2 fold change of -0.648. “TROAP (peptide sequence: SCLTAIHCFHEAR, peptide start residue: 717) (UniProt Q12815)” was tested, and the log2 fold change was -0.523. Work on “RING1 (peptide sequence: VSRPLELCYAPTK, peptide start residue: 391) (UniProt Q06587)” yielded a log2 fold change of -0.779. For “UniProt P83881 (peptide sequence: QSGYGGQTKPIFRK, peptide start residue: 45)”, the log2 fold change was -0.0975. With “ILF3 (peptide sequence: DLCTRVPTWGPLR, peptide start residue: 235) (UniProt Q12906)” the log2 fold change was 0.436. Target “LCP2 (peptide sequence: SLAPFDREPFTLGK, peptide start residue: 246) (UniProt Q13094)” has a log2 fold change of -0.0967. Work on “UniProt Q12905 (peptide sequence: AYEKPPEK, peptide start residue: 357)” yielded a log2 fold change of -0.621. With “NFKB2 (peptide sequence: NMMGTMIQK, peptide start residue: 145) (UniProt Q00653)” the log2 fold change was -1.06. “DAB2 (peptide sequence: KGPEKTDEYLLAR, peptide start residue: 30) (UniProt P98082)” was tested, and the log2 fold change was -0.592. In the case of “EEF1A2 (peptide sequence: QTVAVGVIKNVEKK, peptide start residue: 431) (UniProt Q05639)”, the log2 fold change is reported as 0.42. For “ELAVL2 (peptide sequence: AINTLNGLR, peptide start residue: 77) (UniProt Q12926)”, the log2 fold change was -0.0992. Work on “CAMSAP2 (peptide sequence: LNSSLHFLQQEMQR, peptide start residue: 898) (UniProt Q08AD1)” yielded a log2 fold change of -0.194. With “DMTN (peptide sequence: TSLPHFHHPETSRPDSNIYK, peptide start residue: 123) (UniProt Q08495)” the log2 fold change was 0.246. In the case of “RBL2 (peptide sequence: NILQQHFDK, peptide start residue: 385) (UniProt Q08999)”, the log2 fold change is reported as -0.595. With “SPIRE1 (peptide sequence: LCAAHLPTESDAPNHYQAVCR, peptide start residue: 202) (UniProt Q08AE8)” the log2 fold change was -0.272. “U2AF1 (peptide sequence: REEDAEKAVIDLNNR, peptide start residue: 119) (UniProt Q01081)” was tested, and the log2 fold change was -0.148. Work on “ECH1 (peptide sequence: SVQATTENK, peptide start residue: 310) (UniProt Q13011)” yielded a log2 fold change of 0.359.
